The assay in a line: qHTS Assay for Modulators of Lamin A Splicing. The note with it: HeLa LMNA splicing GFP/RFP minigene ratio, 48 h. In a few lines: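 Read-out is the ratio of GFP to DsRed2 object intensity, acquired by 488 nm laser-scanning cytometry on HeLa lamin A-EGFP minigene reporter cells. Compound incubation 48 hrs at 37 °C in Opti-MEM with 2% FBS; DMSO 0.5% final.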
(In general: Quantitative high-throughput screening tests each substance at several concentrations.)

Setting [1] is: measured here: GFP splicing reporter channel.
Setting [2] is: measured here: RFP viability control channel.

SMILES strings stand for the structures. The list shows a part of the results. Further columns of the screen follow, without active or inactive calls. Most of these compounds were active or inconclusive in the main read-out, so they are no random draw. The note in brackets gives the kind of curve behind each potency; many fits are weak.

As usually defined, the AC50 is the midpoint of the concentration-response curve, whichever way the signal moves. Regarding `CCCCCCSc1nsc(N)n1`, the AC50 under setting [1] is 15.8 µM [rising, single point].

In the case of `O=C1CCN(Cc2nc(-c3ccc(Cl)cc3)no2)CCN1`, the AC50 was 0.0398 µM [falling, full curve] under setting [1] and 0.708 µM [falling, full curve, poor fit] under setting [2].

Turning to `O=C(Cc1cccc(C(F)(F)F)c1)NCc1ccc(Cl)cc1Cl`, the concentration at half-maximal activity (AC50) under setting [2] is 5.01 µM [falling, single point].

Turning to `O=C(CCc1ccc(Oc2cc([N+](=O)[O-])cc([N+](=O)[O-])c2)cc1)N1CCCCC1`, the concentration at half-maximal activity (AC50) under setting [2] was 25.1 µM [rising, single point].

`O[C@@H]1[C@@H]2c3cc4c(cc3CN3CCC(=C[C@@H]1O)[C@H]23)OCO4`: the AC50 is, setting by setting: under setting [1], 4.47 µM [falling, partial curve]; under setting [2], 3.55 µM [falling, partial curve].

Consider `COC(=O)CCC(=O)OC1(C)C(=O)C2=CN(Cc3ccco3)C(c3ccc(OC)cc3)=CC2=C(Br)C1=O` (centres undefined), for which the half-maximal activity concentration (AC50) under setting [1] was 1.26 µM [rising, single point].

As to `CC(C)COc1ccc(C(=O)CCN2CCCCC2)cc1`, the concentration at half-maximal activity (AC50) is, setting by setting: under setting [1], 12.6 µM [rising, partial curve, poor fit]; under setting [2], 11.2 µM [rising, partial curve, poor fit].

Turning to `N#Cc1nc(-c2ccco2)oc1N1CCN(c2ccccc2)CC1`, the concentration at half-maximal activity (AC50) under setting [2] is 15.8 µM [rising, single point].

Consider `COc1cccc(NC(=O)CSc2nnc3cc(C)nc(N)n23)c1`, for which, under setting [2], the concentration at half-maximal activity (AC50) was 0.316 µM [falling, full curve].

`N#CC1=C(N)OC2=C(CCc3ccccc32)C1c1ccccc1Cl` (centres undefined): the AC50 under setting [2] was 3.98 µM [rising, partial curve].

As for `COc1ccc(-c2[nH]ncc2N=Nc2ccccc2)cc1`, the concentration at half-maximal activity (AC50) under setting [1] was 28.2 µM [falling, partial curve] and the AC50 under setting [2] was 31.6 µM [falling, partial curve].

`CCCOc1nc2c(c(=O)n(C)c(=O)n2C)n1Cc1cccc2ccccc12`: the AC50 is 2.24 µM [rising, partial curve] under setting [1] and 3.98 µM [rising, full curve] under setting [2].

With `Cc1ccc(OCC(=O)OCc2cc(=O)n3nc(-c4cccs4)sc3n2)cc1`, the AC50 under setting [1] is 0.0708 µM [falling, partial curve].

In the case of `CCC(C)OC(=O)c1[nH]c2c(c1C)C(=O)CC(c1ccc(N(C)C)cc1)C2` (centres undefined), the AC50 under setting [2] was 35.5 µM [rising, single point].

Consider `CN(C)/C=C1/Sc2ccccc2C1=O`, for which the half-maximal activity concentration (AC50) under setting [1] is 2 µM [rising, partial curve, poor fit].

In the case of `COc1ccc(C(=O)NCCSc2ccccc2)cc1OC`, under setting [1], the half-maximal activity concentration (AC50) is 0.501 µM [falling, full curve, poor fit].

With `COc1ccccc1NC(=O)NCc1ccccc1F`, the concentration at half-maximal activity (AC50) under setting [1] is 0.112 µM [rising, full curve, poor fit].

With `O=C(/C=C1\NC2(CCCC2)Cc2ccccc21)C(=O)N/N=C/c1ccccc1O`, under setting [2], the AC50 was 2.24 µM [rising, full curve, poor fit].

Turning to `Cn1cc(S(=O)(=O)c2ccc(Cl)cc2)c(=O)c2cc(F)c(N3CCCC3)cc21`, the AC50 reads like this: under setting [1], 0.0398 µM [falling, full curve]; under setting [2], 25.1 µM [falling, partial curve].

Take `CCCC1Cc2c(sc(N)c2C#N)CO1` (centres undefined): the AC50 under setting [1] was 0.158 µM [rising, full curve, poor fit].

With `Cc1ccc(NS(=O)(=O)c2ccc(NC(=O)c3ccc(Br)o3)cc2)c(C)c1`, the AC50 under setting [2] was 11.2 µM [rising, partial curve].

For the compound `Cc1sc2nc(CN3CCCCC3)nc(Cl)c2c1C`, the AC50 under setting [2] is 22.4 µM [rising, partial curve, poor fit].

Consider `C[C@H](Cc1ccc(O)c(O)c1)[C@@H](C)Cc1ccc(O)c(O)c1`, for which the concentration at half-maximal activity (AC50) is 4.47 µM [falling, full curve, poor fit] under setting [1] and 7.94 µM [falling, partial curve, poor fit] under setting [2].

For `O=C(C1CCC1)N1CCCc2cc(S(=O)(=O)Nc3ccc(F)cc3)ccc21`, the concentration at half-maximal activity (AC50) under setting [1] is 0.0501 µM [falling, full curve, poor fit].

Regarding `Cc1cccc(CNC(=O)CCCN2C(=O)CCn3nc(-c4cn(C)c5ccccc45)cc32)c1`, the half-maximal activity concentration (AC50) is, setting by setting: under setting [1], 1.41 µM [falling, full curve, poor fit]; under setting [2], 0.158 µM [falling, full curve, poor fit].

`O=C(Nc1nc(-c2ccc(Cl)cc2)cs1)NC1CCCCC1`: the AC50 by setting is: under setting [1], 22.4 µM [rising, single point]; under setting [2], 31.6 µM [rising, single point].

Regarding `COc1ccc(OC)c(C2CC(=O)OC3=C2C(=O)CC(C)(C)C3)c1` (centres undefined), the AC50 is, setting by setting: under setting [1], 1 µM [rising, partial curve]; under setting [2], 14.1 µM [rising, single point].

For the compound `O=C(CSc1nnc(SCc2cccc3ccccc23)s1)N/N=C/c1c[nH]c2ccccc12`, under setting [2], the AC50 is 1.26 µM [rising, partial curve].

With `O=C(C[n+]1cn(C(F)F)c2ccccc21)c1ccc(OC(F)F)cc1`, the AC50 was 22.4 µM [falling, single point] under setting [1] and 35.5 µM [falling, partial curve, poor fit] under setting [2].

Regarding `CC/C(=N\NC(=O)CCC(=O)NCc1ccccc1)c1ccc(O)cc1`, the half-maximal activity concentration (AC50) under setting [1] is 0.891 µM [falling, partial curve, poor fit].

In the case of `FC(F)(F)c1cnc(NNC(=S)Nc2ccc(Cl)cc2)c(Cl)c1`, the AC50 was 2.82 µM [rising, full curve, poor fit] under setting [1] and 3.98 µM [rising, full curve] under setting [2].

Turning to `CC(C)(C)c1ccc(S(=O)(=O)N2CCN(CCC#N)CC2)cc1`, the concentration at half-maximal activity (AC50) under setting [2] was 10 µM [rising, partial curve, poor fit].

Regarding `CCc1ccc(Nc2ccc(S(=O)(=O)N3CCOCC3)cc2[N+](=O)[O-])cc1`, the AC50 was 10 µM [rising, partial curve] under setting [1] and 15.8 µM [rising, partial curve] under setting [2].

As to `Cc1ccc(C(=O)CCC(=O)Nc2ccc(Cl)c(S(=O)(=O)Nc3cccc(Cl)c3)c2)cc1`, under setting [2], the concentration at half-maximal activity (AC50) was 8.91 µM [rising, partial curve, poor fit].

In the case of `COc1ccc(CC2(C)OC(c3ccc(Cl)cc3)=NN2C(C)=O)cc1` (centres undefined), the concentration at half-maximal activity (AC50) by setting is: under setting [1], 35.5 µM [rising, single point]; under setting [2], 31.6 µM [rising, single point].
